These results are taken from PubChem BioAssay AID1347426 (Functional Genomics Laboratory (NCATS/FGL), 2020).

In all, about 31,000 sequences went through this assay and about 1,400 (4.5%) were called active.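 How the source made its calls: active means median seed-adjusted z-score above 1 or below -1; inactive means the rest.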 Some of the results follow.

This assay is described as follows: Novel Modifiers of Survival Motor Neuron (SMN) Protein: Gene Identification via Genome-wide siRNA Screen.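 Further: luminescence tracks full-length SMN protein made from the SMN2 reporter.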 Particulars: HEK293T SMN2-luciferase reporter, siRNA knockdown, 72 h; actives lie on both sides. The method in brief:
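Luciferase signal, proportional to full-length SMN made from an SMN2 cDNA reporter in stable HEK293T cells, was read 72 h after siRNA reverse transfection. Values were expressed as MAD scores after non-targeting-control normalization and log10 conversion; seed analysis flagged off-targets.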
(In a reporter assay the amount or activity of a reporter protein is the signal.)
With GAAUCGAGUUGAAAUCAAUTT against SPOP, the median seed-adjusted z-score was inactive: 0.000304.

On to GCAUUAGUCUGACAGUACATT against MRGPRX3, for which the median seed-adjusted z-score is inactive: -0.175. To GAGAGGAUCUGACGAACUATT against PTBP2 belongs inactive: 0.138; to GCCUGUAUGUUUAUAACAATT against DRG2, inactive: -0.175; to CAAGCUAUACUUGACCUUATT against PCBD2, inactive: -0.0549. GCAUUGCCUCUGUCGGUAATT against SLC13A1: the median seed-adjusted z-score was inactive: 0.183. As for GCAUCAAGCAGGUUCACUATT against PLK3, the figure is inactive: -0.116; as for GUCUAUACUUGGAGUUAUATT against KCNJ1, inactive: 0.0148; as for GAAGCUACAUCGGCAGUAATT against CXADR, inactive: 0.872. As for GAAGGAGUUUGGAAACACATT against APOC1, the figure is inactive: 0; as for CGCUCACCACCAACCGUAUTT against ATP2B3, inactive: 0.0848; as for GGAUGACUGUGACUUCCAATT against CST7, inactive: 0.303. As for CUGGAUCUGUAUCACCUAUTT against ITSN2, the figure is inactive: 0.933. Take GGAUGUGAAGGGUACAUAUTT against LIG3: the median seed-adjusted z-score is inactive: -0.0498.

Take GGACAAACCUUCCUCCAGATT against ZNF70: the median seed-adjusted z-score was inactive: -0.558. With GAGUCUUGCUUCCAAUAAATT against RPP25, the median seed-adjusted z-score is inactive: 0. As for CGUGUAACGUGGUUUGUGATT against PABPC3, the figure is inactive: -0.314.

Take CCGACUAUCUCUAUCCGGATT against PLAU: the median seed-adjusted z-score is inactive: 0.0765. To GAAAGACCAUGAAUGUAGUTT against ZNF232 belongs inactive: 0.39; to CAAGCCCAUUUGACACUGATT against FTSJ3, inactive: 0.437. For GAACUAUGGGUUACCAGGATT against CFI, the median seed-adjusted z-score was inactive: -0.596.

For the sequence GAACUGACAAGCUUAGUAATT against SAP18, the median seed-adjusted z-score was active: 2.14.

For AACUCGCAGUGGUUCAAUUTT against TXNDC8, the median seed-adjusted z-score is inactive: -0.281. To GGUCAACUAUCAUAGGAGATT against RARS belongs inactive: -0.268; to CUACUUUCGAGACUACUUUTT against DGAT2, inactive: 0.195.

As to ACACAGCUGUUGUACCUCATT against MAP4, the median seed-adjusted z-score is active: 1.67. To CCAUCUUGUAUGACUCAAATT against ELMO1 belongs inactive: -0.00404; to GCCGCUGAUUGGGAAGGUATT against GAA, inactive: 0.756.

In the case of GGAUAUGGUUGGAUUAGCATT against GAD2, the median seed-adjusted z-score was inactive: 0.0588. As for CCAUAAUGGUGUUGCUUAUTT against BOLL, the figure is inactive: -0.072; as for GGUGUAAAAGUGAUUAUAATT against LCLAT1, inactive: 0.

GGAAUACCAUAGUCCAGAUTT against MAP3K7IP3: the median seed-adjusted z-score is inactive: 0.267.

Regarding CGUUGUUUUUCGAUUGCAATT against ESD, the median seed-adjusted z-score was inactive: -0.196. As for CACCCUGAAUGGAUUGAGATT against ELAVL2, the figure is inactive: -0.077; as for GGUCCUACUGGGAAAUGUATT against ARL9, inactive: 0.98. As for CUCACGAAAUUGACCGCUATT against HLA-DMA, the figure is inactive: -0.00543; as for CCUCAAAUCUUACGGAACATT against ZNF675, inactive: -0.343.

For GCAAGGUACUGCAACCACATT against RNASE12, the median seed-adjusted z-score is inactive: -0.16.

Turning to GCAUGGUAGCCGAAGAUUUTT against IGF1R, the median seed-adjusted z-score was inactive: -0.358. As for GGACAACAGGUAUUCCGAUTT against KCNQ3, the figure is inactive: 0.313; as for GCCUUUCGAUGAAGAUUAUTT against CNTN4, inactive: -0.407; as for CGGCAGUAGCUGCAACCUATT against ATP6V1B1, inactive: 0.38. As for GUAUGAAGCUAUUGUAGAATT against MYCBP, the figure is inactive: -0.196. To CCUCAAUUCUGAUUAGUGUTT against GRM1 belongs inactive: 0.0376.

For the sequence GCAGACACCUGAACUCUCATT against FRMPD2, the median seed-adjusted z-score is inactive: -0.329. As for GGAAGACAGAGAAUCGAAATT against SEMA5A, the median seed-adjusted z-score is inactive: -0.443. As to GGACUAUUUUCAUCAACCATT against ATP8A1, the median seed-adjusted z-score is inactive: 0. As for GAGUUAUGGUGCUAUAGGATT against PHEX, the figure is inactive: -0.0314; as for CACCAUGAAUAAUCAACUUTT against TOM1L1, inactive: -0.0722. As for GGAGAUCACUUUGUCUCCCTT against TPSG1, the figure is inactive: 0; as for GUAACUUGUUUAUUAGACATT against DNA2, inactive: 0.0284. To AUACAGAGGGUUUUGGAAATT against DPF3 belongs inactive: 0.242; to GCCUUUCCGAUACGUCCUATT against VARS, inactive: 0.237; to CAUUUGUGCUGAUCGAAGATT against CANX, inactive: 0.471. As for GCCUUACCAAAGUAGUUGATT against TRIO, the median seed-adjusted z-score was inactive: 0.42.

Regarding CUACAGCCUAUAUAUGAAATT against FCRL1, the median seed-adjusted z-score was inactive: -0.873. To GGUUAUACUCGGGCAGAGATT against NDUFS5 belongs active: -1.35; to CAAGAUCUCAAGAAAUUCATT against CDK2, inactive: -0.347.

In the case of GGCAUGAAGUGAAGGAUGATT against ZNF134, the median seed-adjusted z-score was inactive: -0.0978. As for GAAAUUAAGCUGCAGCUUUTT against CST8, the figure is inactive: -0.0126; as for AGACGGUGACUUACAAAAATT against ARF6, inactive: -0.805; as for GUAUGGAAAUGGGUUUAUATT against PPARA, inactive: 0.113. To GAAUAUUUCCUUAUGGUUUTT against UQCRH belongs inactive: 0.458.

As for GGGUGUACUGCACACGUUATT against EN1, the median seed-adjusted z-score is inactive: 0.761. To GACAUAUCCAGUUCAAUCATT against STAM2 belongs inactive: -0.24; to GGAGGUUCCAGAUCGUGGATT against ZNF205, inactive: -0.468. To AACAUUCUCCCGAGACUUATT against CDC14C belongs inactive: 0.437; to GGUGUUACCUGAACACUGUTT against LTBP2, inactive: 0.0496.

On to CUAUGACUGGAUUAGCGUATT against BEST2, for which the median seed-adjusted z-score was inactive: 0.415.

Turning to GAGUUUAAGUUGUCUACGATT against ARHGEF6, the median seed-adjusted z-score is inactive: -0.0593. To CCGUGCUCCUCAAUCCUAUTT against NDST1 belongs inactive: -0.0763; to GAAGCUUGCCUAUGCCGUUTT against DDX19A, inactive: 0.183. As for GAAGGAUCACCAGCACAUATT against DEAF1, the figure is inactive: 0.0416; as for GCUGUUUGCUGGAUACAAUTT against GNB5, inactive: -0.535; as for CGACAUAUGAGGCUUCAUATT against ZNF599, inactive: 0.0896. As for CUGUGUGACUGGGUCCCAATT against ASGR2, the figure is inactive: 0.0772; as for GAACUAAUCCUGUUCAACATT against ATXN3, inactive: 0.04. With AAGCAGUUGUUAAACCAGATT against TRIM54, the median seed-adjusted z-score is inactive: -0.219. For GCUAGUCUUCUGGAAGUUATT against SRPRB, the median seed-adjusted z-score was inactive: 0.000693. To GCUGUUGUCUUUCACCCAATT against HMBS belongs inactive: 0.422; to CAACAACAGAAUACUCAGATT against PHF10, inactive: -0.199; to GCUACAUCGAUUACACCAATT against ZNF462, inactive: 0.0487. CCUUUACCACUGCUCGAAATT against ABCD2: the median seed-adjusted z-score is inactive: -0.102.

For AGUUCCUAUUGUUGCCCUUTT against RENBP, the median seed-adjusted z-score is inactive: 0.587.

Turning to AGAGGAUUCGUGCAGAGAATT against TNNT3, the median seed-adjusted z-score is inactive: -0.293. To GAAAGAACACGUAAAUGUATT against GSPT2 belongs inactive: 0.846; to CAGCUUCGAUAUAAGGAAATT against MYST2, active: -1.46.

Consider GAGGUUUUCCAGACGGUGATT against EHD3, for which the median seed-adjusted z-score was inactive: 0.569. As for GGAAUAUCAUUGCAUACGATT against PTPRM, the figure is inactive: 0; as for GAUUUGACUUUAUCUACGATT against MYO10, inactive: 0.8.

On to CAACCAAGGUCAGUCUUAUTT against TFCP2L1, for which the median seed-adjusted z-score is inactive: -0.246. To GAACCAAGAGAACCACGUATT against SLC25A6 belongs inactive: -0.928. As for GGCUGAAAGGGAUCGGUUATT against GYS2, the figure is inactive: 0.0101; as for CCAUGUCUUGGGAACCGAUTT against PREP, inactive: 0.0883; as for CUGUGGUCUCUGUCUCUUATT against GPR75, inactive: 0. With GAAGCUCUACUCACAGUUUTT against GSTM2, the median seed-adjusted z-score was inactive: -0.464. As for GCAGGGAUAUUAGGCGCAATT against G3BP2, the figure is inactive: -0.336; as for CCAUAGAUACUUGUCGUGATT against RNF34, inactive: -0.0857; as for ACACCACUGCCGAUCCAAATT against PER1, inactive: 0.176.

With CCUGUUUGUUUAUAACGGATT against ITGA11, the median seed-adjusted z-score was inactive: 0.496.

Turning to CCAUCUGCAAAAUCCCGGATT against FOSL1, the median seed-adjusted z-score is inactive: -0.431. For the sequence CUCUCGUACUUUGAACCUATT against PANK3, the median seed-adjusted z-score was inactive: -0.185. As for AGAGGGCUCUGAACCAGUATT against LEPREL2, the figure is inactive: 0.0022; as for CUGGGUUUGUGAAAGGAAATT against SLC7A2, inactive: -0.245; as for GAAUGUGGACAGUUACUAATT against PHF6, inactive: -0.268. With GACUGGACCUCAGGAGUUATT against FOLR2, the median seed-adjusted z-score was inactive: -0.0835. As for CCACCGCAGGCAAACUUGUTT against SDS, the figure is inactive: 0.128. To CCAGAGUUGUUGCUCGAUUTT against USP19 belongs inactive: 0.47.
